Counter-ions that a name gives are not always drawn. This is one part of the list. This data set is noisy: repeats of one test often differ as much as different tests do.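 Cells: ReNCell VM human fetal ventral-midbrain neural progenitors, differentiated mitogen-free. Blinded raters compared doublecortin-stained (early neurons) or tyrosine hydroxylase-stained (dopaminergic neurons) images with untreated wells, where 0 means no change. After repeats and both raters were averaged, compounds scoring 2 or above became hits for retesting.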
Each compound was assayed on ReNCell VM (assay: neuronal differentiation score (DCX+ cell fraction vs untreated, manual image score) (score (-3 to 3)); higher = more neuronal differentiation). Conditions: library: Tocriscreen; 2 uM; 2 weeks.

Structure (SMILES)	neuronal differentiation score
Cc1nc2c(O)cccc2c(=O)[nH]1	inactive: 0
CN1CCC(Nc2ncc3ncnc(Nc4ccc(F)c(Cl)c4)c3n2)CC1 [BIBX 1382 dihydrochloride]	inactive: 0
CCN1CCC[C@H]1CNC(=O)c1cc(S(N)(=O)=O)ccc1OC [(S)-(-)-Sulpiride]	inactive: 0
CCc1cc(C(C)=O)c(O)cc1OCCCCCC(C)(C)c1nn[nH]n1	inactive: 0
N[C@H](C(=O)O)c1cc(O)cc(O)c1	inactive: 0

Each compound was assayed on ReNCell VM (assay: dopaminergic neuron differentiation score (TH+ cell fraction vs untreated, manual image score) (score (0 to 3)); higher = more TH+ dopaminergic neuron differentiation). Conditions: library: LOPAC; 2 uM; 4 weeks; BDNF 10 ng/ml + GDNF 10 ng/ml.

Structure (SMILES)	dopaminergic neuron differentiation score
Cn1c(=O)c2[nH]cnc2n(C)c1=O [Aminophylline ethylenediamine]	inactive: 0
Nc1ccc(CCNc2ncnc3c2ncn3C2OC(CO)C(O)C2O)cc1 (configuration not stated) [N6-2-(4-Aminophenyl)ethyladenosine]	inactive: 0
CSc1ccc2c(c1)C(N1CCN(C)CC1)Cc1ccccc1S2 (configuration not stated) [Methiothepin mesylate]	inactive: 0

Same assay, conditions: library: Prestwick; 2 uM; 4 weeks; BDNF 10 ng/ml + GDNF 10 ng/ml

Structure (SMILES)	dopaminergic neuron differentiation score
CCc1cccc(CC)c1NC(=O)CN(CC(=O)O)CC(=O)O [Etifenin]	inactive: 0
O=C(O)CCC(=O)Nc1ccc(S(=O)(=O)Nc2nccs2)cc1 [Succinylsulfathiazole]	inactive: 0
N=C(N)NS(=O)(=O)c1ccc(N)cc1 [Sulfaguanidine]	inactive: 0
CC(=O)Oc1cc(C(F)(F)F)ccc1C(=O)O [Triflusal]	inactive: 0
CC(=O)OC[C@H]1O[C@@H]([S-])[C@H](OC(C)=O)[C@@H](OC(C)=O)[C@@H]1OC(C)=O.CCP(CC)CC.[Au+] [Auranofin]	inactive: 0
CC(=O)CC(c1ccc([N+](=O)[O-])cc1)c1c(O)c2ccccc2oc1=O (configuration not stated) [Acenocoumarol]	inactive: 1
Cc1c(NC(C)C)c(=O)n(-c2ccccc2)n1C [Isopyrin hydrochloride]	inactive: 0

Same assay, conditions: library: Spectrum; 2 uM; 4 weeks; BDNF 10 ng/ml + GDNF 10 ng/ml

Structure (SMILES)	dopaminergic neuron differentiation score
CN(C)CCCN1c2ccccc2CCc2ccc(Cl)cc21	inactive: 0
N=C(N)NC(=N)N1CCOCC1	inactive: 0
CN(C)/N=N/c1[nH]cnc1C(N)=O	inactive: 0
CCCCC(CC)COC(=O)CC(C(=O)OCC(CC)CCCC)S(=O)(=O)O (configuration not stated)	inactive: 0
CC(C)[N+]1(C)[C@@H]2CC[C@H]1C[C@@H](OC(=O)C(CO)c1ccccc1)C2 (some centres not stated)	inactive: 0
FC(F)(Cl)C(F)(F)Cl	inactive: 0
C#CCN(C)CCCOc1ccc(Cl)cc1Cl	inactive: 0
O=C(O)CCCN1C(=O)c2cccc3cccc(c23)C1=O	inactive: 0
Clc1ccc2c(c1)CCc1cccnc1C2=C1CCNCC1	inactive: 0
CCCCC(=O)O[C@H]1CC[C@H]2[C@@H]3CCc4cc(O)ccc4[C@H]3CC[C@]12C	inactive: 0
O=C(Nc1ccccc1)OCC(CN1CCCCC1)OC(=O)Nc1ccccc1 (configuration not stated)	inactive: 0
CC(C)CCCC(C)C1CCC2C3CCC4CC(O)CCC4(C)C3CCC12C (stereo not drawn) [5alpha-CHOLESTANOL]	active: 3
CCn1nc(C(=O)O)c(=O)c2cc3c(cc21)OCO3	inactive: 0
CC(C)(C)NC[C@H](O)c1ccc(O)c(CO)c1	inactive: 0
C1CCN2C[C@@H]3C[C@@H](CN4CCCC[C@@H]34)[C@H]2C1	inactive: 0
CCOC(=O)c1ccc(N)cc1	inactive: 0
Nc1ncnc(Nc2ccc(Cl)cc2)n1	inactive: 0
CC1(C)S[C@@H]2[C@H](N3C(=O)[C@@H](c4ccccc4)NC3(C)C)C(=O)N2[C@H]1C(=O)O	inactive: 0
O=C(NCCO[N+](=O)[O-])c1cccnc1	inactive: 0
NS(=O)(=O)c1cc2c(cc1Cl)NC(C(Cl)Cl)NS2(=O)=O (configuration not stated)	inactive: 0
COc1ccc(-c2coc3cc(O)ccc3c2=O)c(OC)c1	inactive: 0
CC(=O)c1ccc2c(c1)N(CCCN(C)C)c1ccccc1S2	inactive: 0

A few values from the list:
Entry for CC(C)[N+]1(C)[C@@H]2CC[C@H]1C[C@@H](OC(=O)C(CO)c1ccccc1)C2 (some centres not stated) under dopaminergic neuron differentiation score: inactive: 0
Entry for C1CCN2C[C@@H]3C[C@@H](CN4CCCC[C@@H]34)[C@H]2C1 under dopaminergic neuron differentiation score: inactive: 0

— the supplement of paper PMC4635364
